This test is described as follows: qHTS Assay for Lipid Storage Modulators in Drosophila S3 Cells.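 On cell number change: cells counted by Cell Tracker Red CMTPX staining in the red channel.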 Particulars: BODIPY lipid droplet fluorescence, 18-24 h; for cell number change: measured here: cell count max response, cells fed with added oleic acid. In short, it runs like this:
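Laser-scanning cytometry quantifies lipid droplet accumulation (500–530 nm total intensity; droplet/cell object ratio) in oleic acid-fed (400 uM added) Drosophila S3 cells treated with a concentration series. 20 uM Triacsin C defined 100% inhibition.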
For orientation: Quantitative high-throughput screening tests each substance at several concentrations.

Where [1] appears, read: measured here: lipid fluorescence (Fed channel) AC50, cells fed with added oleic acid.
[2] abbreviates: measured here: cell number channel AC50, cells fed with added oleic acid.

Molecules are shown by their SMILES. The list shows a part of the results. The main result of the screen is listed elsewhere. These columns were measured beside it and carry no call. Most of these compounds were active or inconclusive in the main read-out, so they are no random draw. The note in brackets gives the kind of curve behind each potency; many fits are weak.

Regarding `Cc1cc2ncn(CS(C)(=O)=O)c2cc1C`, the cell number change is -17.2%. Moreover, under setting [1], the AC50 is 4.11 µM [falling, full curve].

Turning to `COc1ccc(OC)c(CNc2ccc(F)c(Cl)c2)c1`, the cell number change was 5.95%. Also, the AC50 under setting [2] is 2.06 µM [rising, single point].

Turning to `COc1ccccc1CC1(C)NC(=O)N(CC(=O)N2CC(C)OC(C)C2)C1=O` (configuration not stated), the cell number change is -33.7%. Moreover, the AC50 under setting [2] is 32.6 µM [falling, single point]. The AC50 under setting [1] was 0.116 µM [falling, single point].

Turning to `COc1ccc(C(=O)N2c3ccccc3CC2C)cc1OC` (configuration not stated), the cell number change is -10.8%.

For the compound `CCOC(=O)c1sc(NC(=O)c2c(C)nn(Cc3ccccc3)c2C)cc1C`, the cell number change is -126%. In addition, the AC50 under setting [2] is 29.1 µM [falling, single point]. In addition, the AC50 under setting [1] was 29.1 µM [falling, single point].

`O=C(N1CCN(c2ccccc2)CC1)C(F)(F)C(F)F`: the cell number change is 3.64%. In addition, under setting [1], the AC50 is 0.103 µM [rising, full curve, poor fit].

In the case of `NC(=O)CSc1nnc2n(-c3ccccc3)c(=O)c3c4c(sc3n12)CCCCC4`, the cell number change was -6.93%.

Consider `O=C(Cn1ccc2ccccc2c1=O)NCCC(=O)Nc1cccc(Cl)c1`, for which the cell number change is -5.56%. In addition, the AC50 under setting [1] was 29.1 µM [falling, single point].

For `CN1CCN(c2ccc(NC(=O)c3ccc(-c4ccc(Cl)cc4)o3)cc2)CC1`, the cell number change was -17.2%.

`O=C(Nc1nonc1-c1ccc(F)cc1)c1ccco1`: the cell number change amounted to 12.5%. For the same compound, under setting [1], the AC50 was 0.092 µM [falling, full curve, poor fit].

As for `CCc1c(C)c(C#N)c2nc3ccccc3n2c1N(C)C`, the cell number change turned out to be 5.74%. In addition, under setting [1], the AC50 was 6.51 µM [rising, single point].

In the case of `COc1ccc(NC(=O)c2cc(-c3cc(OC)c(OC)c(OC)c3)nc3ccccc23)cc1OC`, the cell number change is 2.42%.

Regarding `CC(C)(C)c1ccc(C(=O)NNC(=O)c2cccc(-n3cnnn3)c2)cc1`, the cell number change is -23%. Besides, the AC50 under setting [1] is 0.259 µM [falling, full curve, poor fit].

For the compound `Cc1cc(S(=O)(=O)NCc2ccncc2)c(C)cc1Br`, the cell number change was -37.8%. Further, the AC50 under setting [2] was 14.6 µM [falling, single point]. Further, under setting [1], the AC50 was 20.6 µM [falling, partial curve].

For the compound `CCN1CCN(CC(O)COC(c2ccccc2)c2ccccc2)CC1` (configuration not stated), the cell number change is -10.1%. For the same compound, the AC50 under setting [2] was 0.164 µM [rising, full curve, poor fit].

As to `Cc1onc(-c2ccccc2)c1C(=O)NC(=S)NNC(=O)c1ccc(O)cc1O`, the cell number change is -21.6%. In addition, under setting [1], the AC50 is 2.59 µM [rising, single point].

With `CCCCc1ccc(NC(=O)CN2C(=O)NC(Cc3ccccc3)C2=O)cc1` (configuration not stated), the cell number change was 0.402%.

For the compound `CC1CN(Cc2ccccc2)c2ccccc2NC1=S` (configuration not stated), the cell number change came out at 20.5%. Further, the AC50 under setting [1] is 29.1 µM [falling, single point].

Turning to `CC1(C)CC(=O)C2=C(C1)OC(N)=C(C#N)C2c1ccccc1` (configuration not stated), the cell number change was -1.82%.

`O=C(Cn1c(=O)n(Cc2ccco2)c(=O)c2c3c(sc21)CCCCC3)Nc1ccccc1`: the cell number change is -11.2%. In addition, under setting [1], the AC50 is 29.1 µM [falling, partial curve, poor fit].

Consider `Cc1ccc2oc(=O)c(/C=C(\O)c3sc(C)nc3C)nc2c1`, for which the cell number change was -15.6%. For the same compound, the AC50 under setting [1] is 16.4 µM [falling, single point].

For `NC(=O)C1(N2CCCCC2)CCN(C(=O)CCCn2c(=O)[nH]c3ccsc3c2=O)CC1`, the cell number change is 33.2%. Further, the AC50 under setting [2] was 0.00461 µM [rising, full curve, poor fit]. Moreover, the AC50 under setting [1] is 0.0231 µM [rising, full curve, poor fit].

In the case of `CCC(=O)N1CCc2cc(S(=O)(=O)NC(C(=O)N3CCN(c4ccc(F)cc4)CC3)C(C)C)ccc21` (configuration not stated), the cell number change was 14.1%.

For `Cc1ccc(CN2CCc3[nH]c(=S)[nH]c(=O)c3C2)cc1`, the cell number change is -8.02%. Also, the AC50 under setting [1] was 0.411 µM [falling, single point].

Take `Brc1ccc(CSc2ncn[nH]2)cc1`: the cell number change was 12.6%. For the same compound, under setting [1], the AC50 is 11.6 µM [falling, partial curve].

As to `CCOC(=O)N1CCC(NC(=O)c2cc(C(=O)Nc3ccc(S(=O)(=O)N4CCOCC4)cc3)ccc2CO)CC1`, the cell number change was -15.8%. Moreover, under setting [1], the AC50 was 0.13 µM [falling, full curve, poor fit].

As for `COc1cccc(OC)c1-c1nn2c(-c3cc(-c4ccccc4)n[nH]3)nnc2s1`, the cell number change is -41.1%. The AC50 under setting [2] is 23.1 µM [falling, single point]. For the same compound, the AC50 under setting [1] is 29.1 µM [falling, single point].

For the compound `Cc1oc2cc3oc(=O)c(CCC(=O)NCCN4CCOCC4)c(C)c3cc2c1C`, the cell number change is 12.6%. Also, under setting [1], the concentration at half-maximal activity (AC50) is 29.1 µM [falling, single point].

Regarding `Cc1ccc(N/C=C/C(=O)c2ccccc2)cc1Br`, the cell number change worked out at 14.6%. Further, under setting [2], the AC50 was 5.17 µM [rising, partial curve].

For the compound `CC(C)(C)OC(=O)NCc1ccc(CNC(=O)c2nc[nH]c2C(=O)N2CCc3ccccc3C2)cc1`, the cell number change is -10.8%. The AC50 under setting [1] is 0.00461 µM [rising, full curve, poor fit].

As to `COc1ccc(NC(=O)C(CC(C)C)NC(=O)C2CCC(C)CC2)cc1` (configuration not stated), the cell number change was 10.8%. The AC50 under setting [1] was 0.58 µM [rising, single point].

Take `O=C(COC(=O)Cc1cccc(C(F)(F)F)c1)NCC1CCCO1` (configuration not stated): the cell number change was determined as 15.6%. Also, the AC50 under setting [2] is 1.16 µM [falling, partial curve].

In the case of `O=C(CCn1ccc2cc(S(=O)(=O)N3CCCC3)ccc21)NCCc1ccccc1`, the cell number change was -12.5%. For the same compound, under setting [1], the AC50 was 0.058 µM [falling, full curve, poor fit].

`COc1ccc(OC)c(NC(=O)CCN2CCN(c3ccccc3OC)CC2)c1`: the cell number change was found to be 3.04%. In addition, the AC50 under setting [1] is 16.4 µM [falling, single point].

Regarding `O=C1CC(Cc2ccc(Br)cc2)C(=O)N1c1ccccc1` (configuration not stated), the cell number change was -11.5%. Besides, the concentration at half-maximal activity (AC50) under setting [1] was 5.17 µM [falling, full curve].

`CC(Oc1ccccc1)C(=O)N=C1SC2CS(=O)(=O)CC2N1Cc1ccc(F)cc1` (configuration not stated): the cell number change is -3.77%. Under setting [1], the AC50 is 0.0259 µM [rising, full curve].

Regarding `Cc1ccc(CNC(=O)CCCn2nc(C)n3ccnc3c2=O)cc1`, the cell number change turned out to be 3.2%.

In the case of `Cn1c(=S)[nH]c2c(c1=O)C(C)(C)Cc1ccccc1-2`, the cell number change was -7.95%. Besides, the AC50 under setting [2] was 0.13 µM [falling, full curve, poor fit].

`Cc1cc(C)n(CC(=O)NC2CCCCC2C)c(=O)c1C#N` (configuration not stated): the cell number change is -3.31%.

`COc1ccc(/C=N/NC(=O)c2ccoc2C)cc1COc1ccc(Cl)cc1`: the cell number change was -22.8%. Under setting [1], the AC50 was 7.31 µM [rising, partial curve, poor fit].

In the case of `Cn1c(=O)c2cc(S(=O)(=O)N3CCN(c4cccc(C(F)(F)F)c4)CC3)ccc2n(C)c1=O`, the cell number change was 12.3%. Besides, under setting [1], the AC50 was 3.66 µM [rising, single point].

Turning to `CCCCN(CC)C(=O)c1ccc(Cl)c(Cl)c1`, the AC50 under setting [1] was 0.58 µM [falling, single point].

Consider `Cc1oc(-c2ccccc2F)nc1CN1CCC(C(=O)NCCC2=CCCCC2)CC1`, for which the cell number change was -15.7%. Besides, under setting [1], the AC50 is 1.64 µM [falling, full curve, poor fit].

For the compound `CN1C(=O)/C(=C/c2ccco2)SC1=Nc1ccc(N2CCOCC2)cc1`, the cell number change was -32.9%. For the same compound, under setting [2], the AC50 is 32.6 µM [falling, single point].

On to `Cc1ccc(CC(=O)Nc2nc3c(s2)CCCC3)cc1`, for which, under setting [1], the AC50 was 5.17 µM [falling, partial curve].

For `CCOc1ncccc1C(=O)N1CCN(S(=O)(=O)c2ccc(Br)cc2Cl)CC1`, the cell number change was -10.8%.

For `O=C(O)Cn1c(=O)c2c3c(sc2n(Cc2ccccc2)c1=O)CCCC3`, the cell number change was 12.8%. Under setting [1], the AC50 was 13 µM [rising, partial curve, poor fit].

On to `Cc1cc(C)n(-c2ccc(C(=O)Nc3cccc(S(=O)(=O)N4CCCC4)c3)cc2)n1`, for which the cell number change was -26.3%. Moreover, the half-maximal activity concentration (AC50) under setting [1] was 16.4 µM [falling, single point].

For `Cc1ccc(S(=O)(=O)N(CC(=O)NCc2cccnc2)c2ccc(F)cc2)cc1`, the cell number change was 31.2%. Also, the AC50 under setting [2] is 13 µM [rising, partial curve, poor fit]. Further, the AC50 under setting [1] is 0.13 µM [rising, full curve].

For the compound `c1cncc(CNc2ncnc3ccc(-c4ccc5c(c4)OCO5)cc23)c1`, the cell number change is -5.18%.

Regarding `O=C(COc1ccc(/C=N/NC(=O)c2cc3ccccc3o2)cc1Cl)Nc1ccccc1`, the cell number change is -55.6%. Moreover, under setting [2], the AC50 was 2.59 µM [falling, full curve]. Under setting [1], the AC50 is 4.61 µM [falling, full curve].

`COc1ccccc1/C=C/C1(C(=O)NC2CCCC2)CC(=O)N1c1ccc(C)cc1` (configuration not stated): the cell number change is -33.6%. Also, the AC50 under setting [2] is 16.4 µM [falling, single point]. In addition, the AC50 under setting [1] is 16.4 µM [falling, single point].

Take `C/C(=N/NC(=O)c1cc(-c2ccc(Br)s2)[nH]n1)c1ccco1`: the cell number change was -15.5%. Further, the AC50 under setting [1] is 16.4 µM [falling, single point].

On to `COc1ccc2oc(C(F)(F)C(F)F)cc(=O)c2c1`, for which the cell number change was 9.76%. For the same compound, the AC50 under setting [1] is 29.1 µM [rising, single point].

Turning to `Cc1ccccc1NC(=S)NC(NC(=O)COc1ccccc1)C(Cl)(Cl)Cl` (configuration not stated), the cell number change was -34.9%. Also, under setting [2], the AC50 was 11.6 µM [falling, partial curve, poor fit]. Besides, the AC50 under setting [1] was 8.2 µM [falling, partial curve, poor fit].

Turning to `CCn1c(CCNC(=O)c2cccs2)nnc1SCC(=O)Nc1nc(-c2ccccc2)cs1`, the cell number change is -59.6%. Besides, the AC50 under setting [2] is 20.6 µM [falling, partial curve]. For the same compound, the AC50 under setting [1] is 18.4 µM [falling, partial curve].

For `Cc1nnc(NC(=O)c2nc(S(=O)(=O)Cc3ccccc3C)ncc2Cl)s1`, the cell number change is -29.6%. Also, under setting [2], the AC50 was 0.058 µM [falling, full curve, poor fit].

Turning to `COc1ccc(N=N/C(=C\O)C(=O)c2ccco2)cc1`, the cell number change was 22.9%.

As to `O=C(Nc1ccccc1C(=O)N/N=C/c1ccco1)c1ccc(Cl)cc1`, the cell number change turned out to be 11.5%. Moreover, the AC50 under setting [1] was 3.26 µM [rising, partial curve].

Turning to `O=C(COc1ccccc1[N+](=O)[O-])NCCCN1CCCC1=O`, the cell number change stood at 38.7%. Also, the AC50 under setting [2] was 8.2 µM [rising, partial curve]. In addition, the AC50 under setting [1] is 6.51 µM [rising, full curve].

The term AC50 denotes the midpoint of the concentration-response curve, whichever way the signal moves. The low end stands for greater potency, the high end for weaker potency.

The values above are taken from PubChem BioAssay AID2685 (National Center for Advancing Translational Sciences (NCATS), 2010).
